Experimental data reported in publication PMC10949598.
No constants are given. Whether binding was seen depends on the method and setting. Binding seen in cells or lysates may run through a third protein. Some binding calls cover weakened binding; strength is not graded here. For some of these results: Sequences can lack the tags named with a protein. Each block holds one substance with its values, some of them ahead of it.

The chains behind the UniProt entries cited, without tags or fusion partners.
UniProt P35579: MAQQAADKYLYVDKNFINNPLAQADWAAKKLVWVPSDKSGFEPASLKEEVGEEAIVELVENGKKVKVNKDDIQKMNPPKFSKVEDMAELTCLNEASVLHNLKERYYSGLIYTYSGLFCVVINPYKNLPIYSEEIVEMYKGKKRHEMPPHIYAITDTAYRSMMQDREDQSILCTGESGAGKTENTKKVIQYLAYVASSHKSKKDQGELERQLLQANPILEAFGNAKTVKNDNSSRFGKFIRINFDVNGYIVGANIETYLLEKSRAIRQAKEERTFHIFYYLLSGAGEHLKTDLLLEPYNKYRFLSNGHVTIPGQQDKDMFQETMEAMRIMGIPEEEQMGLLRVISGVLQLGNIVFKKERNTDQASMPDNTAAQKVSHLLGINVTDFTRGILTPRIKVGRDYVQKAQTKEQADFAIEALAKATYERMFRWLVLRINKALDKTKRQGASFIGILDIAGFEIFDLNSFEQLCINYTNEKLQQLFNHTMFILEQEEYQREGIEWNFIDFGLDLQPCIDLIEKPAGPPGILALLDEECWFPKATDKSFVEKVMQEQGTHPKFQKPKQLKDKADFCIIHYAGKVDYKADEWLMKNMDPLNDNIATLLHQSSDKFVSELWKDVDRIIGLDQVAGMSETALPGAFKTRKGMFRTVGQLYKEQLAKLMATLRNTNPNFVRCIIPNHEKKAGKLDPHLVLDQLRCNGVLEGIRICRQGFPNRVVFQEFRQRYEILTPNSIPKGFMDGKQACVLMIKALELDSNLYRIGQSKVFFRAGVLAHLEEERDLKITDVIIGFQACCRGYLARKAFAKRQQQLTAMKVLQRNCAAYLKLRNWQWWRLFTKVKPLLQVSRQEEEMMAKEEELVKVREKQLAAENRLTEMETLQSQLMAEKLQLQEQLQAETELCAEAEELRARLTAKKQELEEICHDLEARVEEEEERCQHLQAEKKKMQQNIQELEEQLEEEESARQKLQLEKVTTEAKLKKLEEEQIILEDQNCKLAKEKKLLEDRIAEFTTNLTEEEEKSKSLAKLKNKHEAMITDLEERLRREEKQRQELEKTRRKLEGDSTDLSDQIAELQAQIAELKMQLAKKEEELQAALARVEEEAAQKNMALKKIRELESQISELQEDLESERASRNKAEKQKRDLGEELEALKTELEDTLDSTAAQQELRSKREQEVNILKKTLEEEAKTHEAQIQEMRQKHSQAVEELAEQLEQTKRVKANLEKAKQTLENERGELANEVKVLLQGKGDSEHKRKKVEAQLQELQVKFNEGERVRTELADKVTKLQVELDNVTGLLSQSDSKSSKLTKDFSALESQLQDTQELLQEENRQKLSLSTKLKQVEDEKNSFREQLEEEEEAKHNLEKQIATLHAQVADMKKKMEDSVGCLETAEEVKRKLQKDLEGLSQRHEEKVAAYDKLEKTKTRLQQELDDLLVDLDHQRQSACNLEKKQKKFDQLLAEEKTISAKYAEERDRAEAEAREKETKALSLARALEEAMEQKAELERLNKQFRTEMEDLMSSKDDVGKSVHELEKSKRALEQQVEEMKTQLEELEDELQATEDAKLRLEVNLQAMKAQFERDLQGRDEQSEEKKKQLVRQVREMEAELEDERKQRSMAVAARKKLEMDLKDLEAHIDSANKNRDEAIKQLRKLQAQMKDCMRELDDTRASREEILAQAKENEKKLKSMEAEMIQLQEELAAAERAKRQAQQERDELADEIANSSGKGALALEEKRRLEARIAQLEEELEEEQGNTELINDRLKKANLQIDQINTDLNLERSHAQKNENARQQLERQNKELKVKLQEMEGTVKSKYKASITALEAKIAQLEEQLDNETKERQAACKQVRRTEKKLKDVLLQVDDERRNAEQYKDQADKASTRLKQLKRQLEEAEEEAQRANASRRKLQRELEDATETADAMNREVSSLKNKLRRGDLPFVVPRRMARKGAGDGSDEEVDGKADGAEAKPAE
UniProt Q8IWT3: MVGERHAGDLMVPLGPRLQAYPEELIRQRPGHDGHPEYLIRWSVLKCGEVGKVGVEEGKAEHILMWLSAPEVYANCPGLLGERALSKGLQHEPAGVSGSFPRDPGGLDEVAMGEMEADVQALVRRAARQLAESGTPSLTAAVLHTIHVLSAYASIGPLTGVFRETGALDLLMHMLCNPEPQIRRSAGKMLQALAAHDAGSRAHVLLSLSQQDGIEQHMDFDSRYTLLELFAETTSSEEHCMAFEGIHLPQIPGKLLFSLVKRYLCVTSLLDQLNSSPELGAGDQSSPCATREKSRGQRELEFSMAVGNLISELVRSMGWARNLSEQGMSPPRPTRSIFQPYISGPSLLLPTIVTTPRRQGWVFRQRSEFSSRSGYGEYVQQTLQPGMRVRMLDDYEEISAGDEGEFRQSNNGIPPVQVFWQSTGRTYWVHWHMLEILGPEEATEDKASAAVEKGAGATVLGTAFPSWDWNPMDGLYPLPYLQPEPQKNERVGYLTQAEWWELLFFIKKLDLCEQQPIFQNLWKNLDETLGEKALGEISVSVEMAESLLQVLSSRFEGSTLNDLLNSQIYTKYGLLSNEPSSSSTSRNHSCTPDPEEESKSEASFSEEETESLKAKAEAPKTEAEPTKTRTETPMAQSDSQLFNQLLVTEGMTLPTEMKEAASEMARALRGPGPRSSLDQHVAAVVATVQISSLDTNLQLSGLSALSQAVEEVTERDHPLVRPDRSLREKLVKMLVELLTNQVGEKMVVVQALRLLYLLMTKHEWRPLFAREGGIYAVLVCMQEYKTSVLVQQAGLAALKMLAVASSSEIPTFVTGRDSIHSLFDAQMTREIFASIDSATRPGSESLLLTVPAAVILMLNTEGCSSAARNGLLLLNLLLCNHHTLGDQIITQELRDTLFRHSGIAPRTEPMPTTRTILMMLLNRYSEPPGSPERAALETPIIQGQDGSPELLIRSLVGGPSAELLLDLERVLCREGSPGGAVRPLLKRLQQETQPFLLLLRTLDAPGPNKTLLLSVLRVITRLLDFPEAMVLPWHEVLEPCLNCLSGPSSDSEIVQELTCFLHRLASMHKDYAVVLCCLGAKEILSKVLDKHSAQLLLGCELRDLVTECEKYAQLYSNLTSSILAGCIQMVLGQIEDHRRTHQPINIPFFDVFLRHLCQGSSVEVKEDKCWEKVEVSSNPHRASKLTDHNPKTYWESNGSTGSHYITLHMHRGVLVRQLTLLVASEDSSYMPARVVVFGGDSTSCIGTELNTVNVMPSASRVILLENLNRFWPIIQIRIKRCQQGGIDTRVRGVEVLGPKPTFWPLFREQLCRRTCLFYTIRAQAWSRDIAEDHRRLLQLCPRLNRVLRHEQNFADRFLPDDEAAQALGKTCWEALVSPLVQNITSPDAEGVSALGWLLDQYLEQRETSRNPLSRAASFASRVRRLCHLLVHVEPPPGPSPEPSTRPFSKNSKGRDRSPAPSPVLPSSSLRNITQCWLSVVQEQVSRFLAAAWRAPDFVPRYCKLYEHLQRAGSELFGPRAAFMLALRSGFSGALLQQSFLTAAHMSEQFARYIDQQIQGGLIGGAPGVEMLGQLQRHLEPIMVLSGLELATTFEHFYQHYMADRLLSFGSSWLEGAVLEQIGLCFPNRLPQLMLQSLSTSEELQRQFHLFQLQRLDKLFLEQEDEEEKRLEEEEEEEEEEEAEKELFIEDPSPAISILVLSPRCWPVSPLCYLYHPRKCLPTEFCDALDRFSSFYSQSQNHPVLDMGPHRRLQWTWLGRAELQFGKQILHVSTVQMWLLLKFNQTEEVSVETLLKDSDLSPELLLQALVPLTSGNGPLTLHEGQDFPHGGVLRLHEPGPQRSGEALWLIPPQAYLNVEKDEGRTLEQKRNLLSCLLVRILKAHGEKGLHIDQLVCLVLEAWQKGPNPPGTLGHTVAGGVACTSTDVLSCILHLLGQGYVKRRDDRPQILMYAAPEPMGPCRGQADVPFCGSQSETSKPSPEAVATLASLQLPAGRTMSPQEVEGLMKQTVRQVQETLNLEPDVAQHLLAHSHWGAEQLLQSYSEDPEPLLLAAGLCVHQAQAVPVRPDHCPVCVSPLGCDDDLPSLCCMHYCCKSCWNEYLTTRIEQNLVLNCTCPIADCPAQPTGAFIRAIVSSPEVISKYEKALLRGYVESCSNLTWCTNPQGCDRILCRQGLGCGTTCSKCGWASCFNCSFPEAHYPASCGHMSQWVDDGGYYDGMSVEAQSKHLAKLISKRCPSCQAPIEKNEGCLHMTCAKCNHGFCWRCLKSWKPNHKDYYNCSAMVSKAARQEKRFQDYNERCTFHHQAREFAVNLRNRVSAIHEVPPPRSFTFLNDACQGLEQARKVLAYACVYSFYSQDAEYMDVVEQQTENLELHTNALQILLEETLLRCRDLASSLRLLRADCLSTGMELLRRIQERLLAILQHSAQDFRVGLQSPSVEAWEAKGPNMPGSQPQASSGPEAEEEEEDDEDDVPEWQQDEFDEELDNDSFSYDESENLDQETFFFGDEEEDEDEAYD
UniProt Q9GZV5: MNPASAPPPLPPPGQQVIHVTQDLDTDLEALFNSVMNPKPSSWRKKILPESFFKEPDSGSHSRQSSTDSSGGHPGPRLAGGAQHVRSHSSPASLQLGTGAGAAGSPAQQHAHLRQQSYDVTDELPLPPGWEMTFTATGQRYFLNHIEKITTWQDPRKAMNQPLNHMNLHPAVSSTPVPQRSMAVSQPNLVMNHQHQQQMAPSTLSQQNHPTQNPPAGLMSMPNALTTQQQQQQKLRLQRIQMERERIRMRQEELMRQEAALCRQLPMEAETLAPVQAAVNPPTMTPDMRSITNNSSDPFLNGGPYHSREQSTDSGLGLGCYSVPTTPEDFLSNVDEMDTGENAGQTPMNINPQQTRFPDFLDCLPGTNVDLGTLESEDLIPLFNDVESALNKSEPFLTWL

Key:
[1] = biological target: Myosin heavy chain 9 (MYH9), endogenous in MDA-231 cells (human (endogenous in MDA-MB-231)) (UniProt P35579); test: co-IP; endogenous proteins in MDA-231 cells
[2] = biological target: T1, Transmembrane protein 120B (TMEM120B), endogenous (human (endogenous in MDA-MB-231)) (UniProt A0PK00); test: co-IP; endogenous proteins in MDA-231 cells
T1 sequence: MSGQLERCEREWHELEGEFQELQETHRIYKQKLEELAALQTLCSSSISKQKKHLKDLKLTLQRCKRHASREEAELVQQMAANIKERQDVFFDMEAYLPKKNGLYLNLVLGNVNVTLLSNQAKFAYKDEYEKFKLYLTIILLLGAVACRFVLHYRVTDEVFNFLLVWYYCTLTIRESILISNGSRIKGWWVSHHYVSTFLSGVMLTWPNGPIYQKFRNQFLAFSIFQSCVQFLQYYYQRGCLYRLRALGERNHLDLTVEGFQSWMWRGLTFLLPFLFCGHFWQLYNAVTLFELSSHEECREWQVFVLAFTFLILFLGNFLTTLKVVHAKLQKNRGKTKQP

[3] = biological target: Myosin heavy chain 9 (MYH9) in SK-BR-3 cells (human (endogenous in SK-BR-3)) (UniProt P35579); test: co-IP; SK-BR-3 cells overexpressing TMEM120B and CUL9 in different doses
[4] = biological target: T2, TMEM120B-Myc (pCMV6-TMEM120B-Myc), full length (human) (UniProt A0PK00); test: as above
T2 sequence: T1 sequence

[5] = biological target: T2, TMEM120B-Myc (pCMV6-TMEM120B-Myc), full length (human); test: co-IP; SK-BR-3 cells transfected with TMEM120B or MYH9 plasmids (wild type or deletion mutants)
[6] = biological target: T1, Transmembrane protein 120B (TMEM120B), endogenous (human (endogenous in MDA-MB-231)); test: co-IP; endogenous proteins; cell line not stated (Fig. S5A)

Substance: CUL9, endogenous in MDA-231 cells (from UniProt Q8IWT3 1-2517)
- binding [1]: binds
- binding [2]: binds

Substance: Myosin heavy chain 9 (MYH9) in SK-BR-3 cells (from UniProt P35579 1-1960)
- binding [4]: binds
- binding [5]: binds

Substance: Myosin heavy chain 9 (MYH9), endogenous in MDA-231 cells (from UniProt P35579 1-1960)
- binding [2]: binds

More lines, now with the values ahead:

- binding [3]: binds
Substance: CUL9-HA (pCMV6-CUL9-HA) (from UniProt Q8IWT3 1-2517)

- binding [6]: no binding
Substance: Transcriptional coactivator with PDZ-binding motif (TAZ), endogenous (from UniProt Q9GZV5 1-400)
